In patent publication WO2008044032A2 (dated 2008):
No constants are given. Whether binding was seen depends on the method and setting. Some entries that bind do so weakly or less than the wild type.

Target: T1, CD20 on the CD20+ human Daudi Burkitt lymphoma cell line (human) (UniProt P11836)
T1 sequence (looked up): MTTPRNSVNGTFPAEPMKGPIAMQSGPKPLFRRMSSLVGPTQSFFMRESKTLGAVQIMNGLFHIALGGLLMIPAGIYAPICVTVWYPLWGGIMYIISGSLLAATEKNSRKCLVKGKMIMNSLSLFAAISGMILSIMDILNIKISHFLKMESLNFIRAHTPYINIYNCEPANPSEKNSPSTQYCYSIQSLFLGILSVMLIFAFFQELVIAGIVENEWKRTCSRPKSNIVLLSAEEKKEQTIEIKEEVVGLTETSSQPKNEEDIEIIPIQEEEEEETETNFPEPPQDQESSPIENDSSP
Experiment: FACS binding assay on CD20+ Daudi cells, serial dilutions of antibody

B1: epitope modified anti-CD20 antibody derived from Leu 16 (antibody, V domains shown)
VH: EVQLQQSGAEVVKPGASVKMSCKASGYTFTSYNMHWVKQTPGQGLEWIGAIYPGNGDTSYNQKFKGRVTLTADKSSSTAYMQLSSLRSEDSAVYYCARSNYYGSSYWFFDVWGAGTTVTVSS
VL: DIVLTQSPATLSASPGEKVTMTCRASSSVNYMAWYQQKPGSSPKPWIYATSNLASGVPARFSGSGSGTSYSLTISRVEAEDAATYYCQQWSFNPPTFGGGTKLEIK
  binding: binds
